In patent publication US7632972B2, “Compounds and methods for treatment of cancer and modulation of programmed cell death for melanoma and other cancer cells” (The Board of Trustees of the University of Illionis, priority 2003, dated 2009):

How the values were obtained:
Format in all cases: cell-based, human
[1] = test system: NCI/ADR-RES; assay: NCI 60 cell line screen (SRB), Breast Cancer
Text: (§1) The operation of this screen utilizes 60 different human tumor cell lines, representing leukemia, melanoma and cancers of the lung, colon, brain, ovary, breast, prostate, and kidney. The aim is to prioritize for further evaluation, synthetic compounds or natural product samples showing selective growth inhibition or cell killing of particular tumor cell lines. This screen is unique in that the complexity of a 60 cell line dose response produced by a given compound results in a biological response pattern which can be utilized in pattern recognition algorithms. Using these algorithms, it is possible to assign a putative mechanism of action to a test compound, or to determine that the response pattern is unique and not similar to that of any of the standard prototype compounds included in the NCl database (see DTP Overview tab). In addition, following characterization of various cellular molecular targets in the 60 cell lines, it may be possible to select compounds most likely to interact with a specific molecular target.
(§2) The human tumor cell lines of the cancer screening panel are grown in RPMI 1640 medium containing 5% fetal bovine serum and 2 mM L-glutamine. For a typical screening experiment, cells are inoculated into 96 well microtiter plates in 100 μL at plating densities ranging from 5,000 to 40,000 cells/well depending on the doubling time of individual cell lines. After cell inoculation, the microtiter plates are incubated at 37° C., 5% CO2, 95% air and 100% relative humidity for 24 h prior to addition of experimental drugs.
(§3) After 24 h, two plates of each cell line are fixed in situ with TCA, to represent a measurement of the cell population for each cell line at the time of drug addition (Tz). Experimental drugs are solubilized in dimethyl sulfoxide at 400-fold the desired final maximum test concentration and stored frozen prior to use. At the time of drug addition, an aliquot of frozen concentrate is thawed and diluted to twice the desired final maximum test concentration with complete medium containing 50 μg/ml gentamicin. Additional four, 10-fold or ½ log serial dilutions are made to provide a total of five drug concentrations plus control. Aliquots of 100 μl of these different drug dilutions are added to the appropriate microtiter wells already containing 100 μl of medium, resulting in the required final drug concentrations.
(§4) Following drug addition, the plates are incubated for an additional 48 h at 37° C., 5% CO2, 95% air, and 100% relative humidity. For adherent cells, the assay is terminated by the addition of cold TCA. Cells are fixed in situ by the gentle addition of 50 μl of cold 50% (w/v) TCA (final concentration, 10% TCA) and incubated for 60 minutes at 4° C. The supernatant is discarded, and the plates are washed five times with tap water and air dried. Sulforhodamine B (SRB) solution (100 μl) at 0.4% (w/v) in 1% acetic acid is added to each well, and plates are incubated for 10 minutes at room temperature. After staining, unbound dye is removed by washing five times with 1% acetic acid and the plates are air dried. Bound stain is subsequently solubilized with 10 mM trizma base, and the absorbance is read on an automated plate reader at a wavelength of 515 nm. For suspension cells, the methodology is the same except that the assay is terminated by fixing settled cells at the bottom of the wells by gently adding 50 μl of 80% TCA (final concentration, 16% TCA). Using the seven absorbance measurements [time zero, (Tz), control growth, (C), and test growth in the presence of drug at the five concentration levels (Ti)], the percentage growth is calculated at each of the drug concentrations levels. Percentage growth inhibition is calculated as: [(Ti−Tz)/(C−Tz)]×100 for concentrations for which Ti>/=Tz [(Ti−Tz)/Tz]×100 for concentrations for which Ti<Tz.
(§5) Three dose response parameters are calculated for each experimental agent. […]

[2] = test system: MCF7; assay: NCI 60 cell line screen (SRB), Breast Cancer
Text: as §1, §2, §3, §4, §5

[3] = test system: HCT-15; assay: NCI 60 cell line screen (SRB), Colon Cancer
Text: as §1, §2, §3, §4, §5

[4] = test system: HCT-116; assay: NCI 60 cell line screen (SRB), Colon Cancer
Text: as §1, §2, §3, §4, §5

[5] = test system: IGROV1; assay: NCI 60 cell line screen (SRB), Ovarian Cancer
Text: as §1, §2, §3, §4, §5

[6] = test system: OVCAR-5; assay: NCI 60 cell line screen (SRB), Ovarian Cancer
Text: as §1, §2, §3, §4, §5

[7] = test system: TK-10; assay: NCI 60 cell line screen (SRB), Renal Cancer
Text: as §1, §2, §3, §4, §5

[8] = test system: SN12C; assay: NCI 60 cell line screen (SRB), Renal Cancer
Text: as §1, §2, §3, §4, §5

[9] = test system: ACHN; assay: NCI 60 cell line screen (SRB), Renal Cancer
Text: as §1, §2, §3, §4, §5

[10] = test system: 786-0; assay: NCI 60 cell line screen (SRB), Renal Cancer
Text: as §1, §2, §3, §4, §5

[11] = test system: UO-31; assay: NCI 60 cell line screen (SRB), Renal Cancer
Text: as §1, §2, §3, §4, §5

[12] = test system: CAKI-1; assay: NCI 60 cell line screen (SRB), Renal Cancer
Text: as §1, §2, §3, §4, §5

In the case of COc1cccc(CCNC(=O)CC(c2ccccc2)(c2ccccc2)c2ccccc2)c1 [Compound Z3], the “Mean Optical Densities” value ([1]; Log10 Concentration −4.0) is reported as 0.324, the “Mean Optical Densities” value ([1]; Log10 Concentration −5.0) is reported as 0.356 and the “Mean Optical Densities” value ([1]; Log10 Concentration −6.0) is reported as 0.413. The “Mean Optical Densities” value ([1]; Log10 Concentration −7.0) was 0.462, the “Mean Optical Densities” value ([1]; Log10 Concentration −8.0) was 0.411 and the “Mean Optical Densities” value ([2]; MCF7, Log10 Concentration −4.0) was 0.245. For the same compound, the “Mean Optical Densities” value ([2]; MCF7, Log10 Concentration −5.0) was 0.367, the “Mean Optical Densities” value ([2]; MCF7, Log10 Concentration −6.0) was 0.475 and the “Mean Optical Densities” value ([2]; MCF7, Log10 Concentration −7.0) was 0.605. For the same compound, the “Mean Optical Densities” value ([2]; MCF7, Log10 Concentration −8.0) was 0.498, the “Mean Optical Densities” value ([3]; HCT-15, Log10 Concentration −4.0) was 0.567 and the “Mean Optical Densities” value ([3]; HCT-15, Log10 Concentration −5.0) was 0.599. For the same compound, the “Mean Optical Densities” value ([3]; HCT-15, Log10 Concentration −6.0) was 0.758, the “Mean Optical Densities” value ([3]; HCT-15, Log10 Concentration −7.0) was 0.844 and the “Mean Optical Densities” value ([3]; HCT-15, Log10 Concentration −8.0) was 0.867. For the same compound, the “Mean Optical Densities” value ([4]; HCT-116, Log10 Concentration −4.0) was 0.212, the “Mean Optical Densities” value ([4]; HCT-116, Log10 Concentration −5.0) was 0.345 and the “Mean Optical Densities” value ([4]; HCT-116, Log10 Concentration −6.0) was 0.598. The “Mean Optical Densities” value ([4]; HCT-116, Log10 Concentration −7.0) was 0.673, the “Mean Optical Densities” value ([4]; HCT-116, Log10 Concentration −8.0) was 0.701 and the “Mean Optical Densities” value ([5]; IGROV1, Log10 Concentration −4.0) was 0.342. The “Mean Optical Densities” value ([5]; IGROV1, Log10 Concentration −5.0) was 0.367, the “Mean Optical Densities” value ([5]; IGROV1, Log10 Concentration −6.0) was 0.371 and the “Mean Optical Densities” value ([5]; IGROV1, Log10 Concentration −7.0) was 0.460. The “Mean Optical Densities” value ([5]; IGROV1, Log10 Concentration −8.0) was 0.384, the “Mean Optical Densities” value ([6]; OVCAR-5, Log10 Concentration −4.0) was 0.438 and the “Mean Optical Densities” value ([6]; OVCAR-5, Log10 Concentration −5.0) was 0.559. For the same compound, the “Mean Optical Densities” value ([6]; OVCAR-5, Log10 Concentration −6.0) was 0.658, the “Mean Optical Densities” value ([6]; OVCAR-5, Log10 Concentration −7.0) was 0.671 and the “Mean Optical Densities” value ([6]; OVCAR-5, Log10 Concentration −8.0) was 0.679. For the same compound, the “Mean Optical Densities” value ([7]; TK-10, Log10 Concentration −4.0) was 0.963, the “Mean Optical Densities” value ([7]; TK-10, Log10 Concentration −5.0) was 1.214 and the “Mean Optical Densities” value ([7]; TK-10, Log10 Concentration −6.0) was 1.331. For the same compound, the “Mean Optical Densities” value ([7]; TK-10, Log10 Concentration −7.0) was 1.321, the “Mean Optical Densities” value ([7]; TK-10, Log10 Concentration −8.0) was 1.295 and the “Mean Optical Densities” value ([8]; Log10 Concentration −4.0) was 0.676. The “Mean Optical Densities” value ([8]; Log10 Concentration −5.0) was 0.376, the “Mean Optical Densities” value ([8]; Log10 Concentration −6.0) was 0.492 and the “Mean Optical Densities” value ([8]; Log10 Concentration −7.0) was 0.529. The “Mean Optical Densities” value ([8]; Log10 Concentration −8.0) was 0.532, the “Mean Optical Densities” value ([9]; Log10 Concentration −4.0) was 0.373 and the “Mean Optical Densities” value ([9]; Log10 Concentration −5.0) was 0.511. For the same compound, the “Mean Optical Densities” value ([9]; Log10 Concentration −6.0) was 0.660, the “Mean Optical Densities” value ([9]; Log10 Concentration −7.0) was 0.711 and the “Mean Optical Densities” value ([9]; Log10 Concentration −8.0) was 0.681. For the same compound, the “Mean Optical Densities” value ([10]; 786-0, Log10 Concentration −4.0) was 0.434, the “Mean Optical Densities” value ([10]; 786-0, Log10 Concentration −5.0) was 0.749 and the “Mean Optical Densities” value ([10]; 786-0, Log10 Concentration −6.0) was 0.998. The “Mean Optical Densities” value ([10]; 786-0, Log10 Concentration −7.0) was 1.084, the “Mean Optical Densities” value ([10]; 786-0, Log10 Concentration −8.0) was 1.004 and the “Mean Optical Densities” value ([11]; UO-31, Log10 Concentration −4.0) was 0.805. The “Mean Optical Densities” value ([11]; UO-31, Log10 Concentration −5.0) was 0.927, the “Mean Optical Densities” value ([11]; UO-31, Log10 Concentration −6.0) was 1.408 and the “Mean Optical Densities” value ([11]; UO-31, Log10 Concentration −7.0) was 1.527. For the same compound, the “Mean Optical Densities” value ([11]; UO-31, Log10 Concentration −8.0) was 1.411, the “Mean Optical Densities” value ([12]; CAKI-1, Log10 Concentration −4.0) was 0.730 and the “Mean Optical Densities” value ([12]; CAKI-1, Log10 Concentration −5.0) was 0.901. The “Mean Optical Densities” value ([12]; CAKI-1, Log10 Concentration −6.0) was 1.184, the “Mean Optical Densities” value ([12]; CAKI-1, Log10 Concentration −7.0) was 1.301 and the “Mean Optical Densities” value ([12]; CAKI-1, Log10 Concentration −8.0) was 1.272.
